The whole screen tested about 320,000 compounds, of which about 620 (0.19%) were called active. The inconclusive results got no clear call from the source; some entries with a clear call stand among them for comparison. Rule as the data show it: active = activation above about 80%; inconclusive = between about 30% and that limit; inactive = weaker than that.
Target: Transient receptor potential cation channel subfamily V member 1 (Homo sapiens) (UniProt Q8NER1)
Assay: HTS Assay for Compounds that Act as Agonists of the Vanilloid Receptor 1; also: 0% is about no effect
Details: TRPV1-expressing cells, Fluo-8 calcium influx, agonist mode; at 8.33 µM, hits give high values
Procedure, shortened: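 Cells expressing TRPV1 were dye-loaded with Fluo-8 and read kinetically: 10 s baseline, 3 min after compound (agonist portion), then 2 min after EC20 capsaicin (allosteric enhancer portion). Calcium-bound dye fluorescence at 480/520 nm.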

Sequences of proteins named here, by UniProt entry; tags and fusion partners are left off.
UniProt Q8NER1, whole entry, looked up: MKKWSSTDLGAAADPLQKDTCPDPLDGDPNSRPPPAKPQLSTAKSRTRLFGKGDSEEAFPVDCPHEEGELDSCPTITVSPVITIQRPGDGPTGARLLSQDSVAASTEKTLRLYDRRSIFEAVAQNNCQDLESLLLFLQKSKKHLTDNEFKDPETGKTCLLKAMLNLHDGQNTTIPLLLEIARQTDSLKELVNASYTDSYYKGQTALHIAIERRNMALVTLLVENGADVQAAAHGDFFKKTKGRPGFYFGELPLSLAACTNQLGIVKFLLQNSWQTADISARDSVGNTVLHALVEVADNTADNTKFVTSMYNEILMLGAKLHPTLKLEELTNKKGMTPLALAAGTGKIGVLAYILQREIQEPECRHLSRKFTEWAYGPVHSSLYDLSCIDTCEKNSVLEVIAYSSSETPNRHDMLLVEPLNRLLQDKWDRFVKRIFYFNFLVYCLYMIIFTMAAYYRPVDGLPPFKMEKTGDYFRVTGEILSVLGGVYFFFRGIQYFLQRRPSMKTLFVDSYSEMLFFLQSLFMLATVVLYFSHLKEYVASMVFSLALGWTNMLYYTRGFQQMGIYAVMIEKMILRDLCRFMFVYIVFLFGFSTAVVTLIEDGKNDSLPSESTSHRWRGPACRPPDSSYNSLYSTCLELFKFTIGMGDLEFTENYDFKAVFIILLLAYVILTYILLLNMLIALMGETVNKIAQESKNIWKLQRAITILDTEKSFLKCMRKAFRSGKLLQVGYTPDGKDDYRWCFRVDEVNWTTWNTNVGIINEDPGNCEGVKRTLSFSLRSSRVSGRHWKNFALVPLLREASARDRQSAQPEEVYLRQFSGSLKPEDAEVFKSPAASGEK

SMILES	activation
C=CCNC(=O)C1CC(=O)N(c2ccc(OCC(=O)Nc3cccc(OC)c3)cc2)C1 (stereo not drawn)	inconclusive: 38.4%
CCc1ccc2oc(C(=O)Nc3nonc3C)c(C)c2c1	inconclusive: 66.2%
CCOc1ccc(/C=C/C(=O)Nc2ccc(C(N)=O)cc2)cc1OC	inconclusive: 75.1%
CC(=O)c1sc(NC(=O)COc2ccc(C)c(C)c2)nc1C	inactive: -3.22%
CCOC(=O)Cn1c(=NC(=O)CSC(C)=O)sc2cc(F)ccc21	inconclusive: 51%
O=C(/C=C/c1ccc(-c2cccc([N+](=O)[O-])c2)o1)N1CCOCC1	inconclusive: 61.1%
COCCNc1nc(SC)nc2sc3c(c12)CCN(C)C3	inactive: -2.41%
C=CCCCCCCCCC(=O)NN	inconclusive: 71.5%
CNc1snc(C)c1C(=O)OCC(=O)N(C)Cc1ccccc1	inactive: 1.31%
COc1ccc2cc(Br)ccc2c1CC(=O)NC(C)(C)C	inconclusive: 54.3%
CN1CCN(C(=O)/C=C/c2ccc(Cl)c(Cl)c2)CC1	inconclusive: 53.1%
Cc1ccc(C(=O)Nc2ccc(N3CCOCC3)cc2)cc1	inconclusive: 45.6%
O=C(c1cccc(Oc2ccccc2)c1)N1CCN(c2ccccn2)CC1	inconclusive: 36.6%
CCOC(=O)C1(CCCc2ccccc2)CCN(Cc2cnc(C)s2)CC1	inconclusive: 32.2%
CCCCOP(=O)(c1ccc(N(C)C)cc1)C(Nc1ccccc1)c1ccccc1 (stereo not drawn)	inconclusive: 49%
N#Cc1c(N2CCSCC2)nsc1-c1ccccc1Cl	inconclusive: 31.1%
COc1cccc(N2CCN(C(=O)c3ccc(N4C(=O)NC5CC4(C)Oc4ccccc45)cc3)CC2)c1 (stereo not drawn)	inactive: -5.17%
COc1cc(C(=O)OCC(=O)NCCC2=CCCCC2)ccc1OCC(C)C	inconclusive: 30.5%
CCCCCCOC(=O)C(C#N)c1nc2ccccc2nc1N1CCOCC1 (stereo not drawn)	inactive: -2.11%
N#CCC(CNc1ncc(C(F)(F)F)cc1Cl)OC(=O)c1ccc(Cl)cc1Cl (stereo not drawn)	inconclusive: 32.1%
CC(=O)N1CCN(c2nc(-c3ccco3)c3c(c2C#N)CC(C)(C)SC3)CC1	inconclusive: 47.1%
Cc1cccc(N2CCN(C(=O)CSc3nnnn3C3CC3)CC2)c1C	inconclusive: 57.7%
COc1ccc(C(=O)c2ccc([N+](=O)[O-])cc2Cl)cc1	inconclusive: 38.8%
CCn1c(=O)c2cc(C(=O)NC(C)C)sc2c2ccccc21	inconclusive: 43.2%

SMILES	activation
CCCn1nc(C(=O)NNC(=O)CCCOc2ccc(OC)cc2)c2ccccc2c1=O	inactive: 6.85%
CCOC(=O)/C(C#N)=C\c1cc(C)n(-c2ccccc2)c1C	inconclusive: 50.7%
CCc1ccc(NC(=O)NC(C)c2ccc3c(c2)OCO3)cc1 (stereo not drawn)	inconclusive: 33.8%
O=C(c1ccc(Oc2ccc(Cl)cc2)c([N+](=O)[O-])c1)N1CCCC1	inconclusive: 38.8%
CCc1ccc(CN(C)C(=O)C2CCC(=O)N(CC3CCCCC3)C2)cc1 (stereo not drawn)	inconclusive: 39.8%
Cc1ccc(-c2onc(C)c2C)cc1S(=O)(=O)N1CCOc2ccccc21	inconclusive: 38.5%
Cc1cccc(C(=O)Nc2ccc(O)cc2)c1	inconclusive: 41.1%
COc1cccc(Nc2ncnc3c2cnn3-c2cccc(C)c2)c1	inactive: 23.4%
CC1CCN(S(=O)(=O)c2ccc(NC(=O)c3ccncc3)cc2)CC1	inconclusive: 45.9%
Cc1ccc(NC(=O)C2CC2c2ccccc2)cc1 (stereo not drawn)	inconclusive: 49.1%
COC(=O)c1c(NC(=O)C(=O)N2CCOCC2)sc2c1CCC2	inconclusive: 78.8%
CSc1ccccc1OCc1cc(C(=O)N2C[C@H]3CC[C@H]2C3)no1	inconclusive: 42.6%
CN(CCOc1ccccc1)C(=O)c1ccc(Cl)c(S(=O)(=O)N2CCCCC2)c1	inconclusive: 39.9%
CC(C)(C)NC(=O)c1cccc(NC(=O)Cc2ccc(Br)cc2)c1	inconclusive: 43%
O=C(N/N=C/c1ccccc1O)c1cccc(C(F)(F)F)c1	inconclusive: 52.3%
O=c1[nH]c(-c2ccccc2)nnc1-c1ccccc1	inactive: 1.03%
CCCOC(=O)c1ccc(-n2nnnc2SCC(=O)N2CCCCC2)cc1	inconclusive: 50.2%
CNC(=O)Nc1ccccc1F	inactive: -1.83%
CCCCn1c(CCC)nc([N+](=O)[O-])c1Sc1ccc(Cl)cn1	inconclusive: 34.2%
O=C(CSCc1cccc(CSCC(=O)Nc2ccc3ccccc3c2)n1)Nc1ccc2ccccc2c1	inconclusive: 42.7%
O=C(Nc1cccc(S(=O)(=O)N2CCOCC2)c1)c1ccc(N2CCCC2=O)cc1	inactive: 0.353%
CCc1ccc(NC(=O)c2noc3c2CCCCC3)cc1	inconclusive: 38.1%
c1ccc(-c2cc(-c3nc4ccccc4[nH]3)c3ccccc3n2)cc1	inconclusive: 39.5%
Cc1ccc(C(=O)c2c(NC(=O)c3ccncc3)sc3c2CCCC3)cc1	inconclusive: 39.2%

SMILES	activation
Cc1ccc(-c2nn(-c3ccccc3)cc2/C=N/NC(=O)c2ccncc2)o1	inconclusive: 43.8%
O=C(CSc1ncnc2sc3c(c12)CCCC3)c1ccco1	inconclusive: 30.3%
N#CC1CN(Cc2ccccc2)CN(Cc2ccccc2)C1	inconclusive: 33.8%
Cc1ccc(S(=O)(=O)NNC(=S)Nc2c(Cl)cccc2Cl)cc1	inactive: -0.448%
CC(C)(C)OC(=O)[C@H](NC(=O)OCc1ccccc1)c1ccccc1	inconclusive: 55.3%
COc1ccc(-c2cc(C(F)F)n3ncc(C(=O)N4CCCCC4)c3n2)cc1	inconclusive: 53.2%
CC(C)C(OC(=O)C1=Cc2ccccc2OC1)C(=O)NC1CCCC1 (stereo not drawn)	inconclusive: 30.8%
N/C(=N\OC(=O)c1ccc2c(c1)OCO2)c1ccc(Cl)cc1	inconclusive: 57.5%
O=C(Nc1ccc(SC(F)F)cc1)c1ccc(F)cc1	inconclusive: 75.3%
CCCc1cc(C(=O)N2CCN(C(c3ccccc3)c3ccccc3)CC2)no1	inconclusive: 46.6%
COc1ccccc1-c1c(C)nn2c(N3CCC(C)CC3)cc(C)nc12	inconclusive: 41.2%
COc1ccccc1CNC(=O)c1cc2c(s1)CS(=O)(=O)C2	inconclusive: 39.9%
Cc1ccc(N(C(=O)c2ccc(CN3CCOCC3)o2)C(C(=O)NCCC(C)C)c2cccs2)c(C)c1 (stereo not drawn)	inconclusive: 57.5%
CC(C)c1ccc(NC(=O)CNS(=O)(=O)c2ccc(F)cc2)cc1	inconclusive: 60.5%
Cc1ccc(SCC(=O)NNC(=O)c2ccccc2)c(C)c1	inactive: -2.95%
COCCOC(=O)C(C#N)c1nc2ccccc2nc1N1CCN(Cc2ccccc2)CC1 (stereo not drawn)	inactive: 14.5%
CCCCN1CCN=C1Nc1ccccc1	inactive: 0.599%
COc1ccc(N2C(=O)c3ccccc3NC2c2ccccc2O)cc1 (stereo not drawn)	inconclusive: 62.5%
COc1cccc(CNC(=O)c2ccncc2)c1	inactive: 1.33%
COCCn1c(SCC(=O)N2CCC(C)CC2)nc2ccccc2c1=O	inconclusive: 32.7%
CCCN1C2CCCC1CC(NC(=O)c1ccc(Br)cc1)C2 (stereo not drawn)	inactive: 0.792%
Cc1ccc(CN2CCSCC2)cc1	inactive: -3.13%
CCc1nc(NCCc2ccccn2)c2nnn(Cc3ccccc3F)c2n1	inconclusive: 41.1%
CN(CC(=O)Nc1ccc(N2CCOCC2)cc1)C(=O)C12CC3CC(CC(C3)C1)C2	inactive: 16.7%

Three records picked at random from those above, as already listed:
SMILES	activation
COc1ccc(-c2cc(C(F)F)n3ncc(C(=O)N4CCCCC4)c3n2)cc1	inconclusive: 53.2%
CCCN1C2CCCC1CC(NC(=O)c1ccc(Br)cc1)C2 (stereo not drawn)	inactive: 0.792%
O=C(CSc1ncnc2sc3c(c12)CCCC3)c1ccco1	inconclusive: 30.3%

Quoted from the listing:
Entry for COc1ccc(C(=O)c2ccc([N+](=O)[O-])cc2Cl)cc1 under activation: inconclusive: 38.8%
Entry for COc1ccc(-c2cc(C(F)F)n3ncc(C(=O)N4CCCCC4)c3n2)cc1 under activation: inconclusive: 53.2%
Entry for O=C(c1cccc(Oc2ccccc2)c1)N1CCN(c2ccccn2)CC1 under activation: inconclusive: 36.6%

Following part

SMILES	activation
CN(c1ccccc1)S(=O)(=O)c1ccc(C(=O)NCCc2ccccc2)cc1	inconclusive: 44.4%
CCOC(=O)CN1C(=O)C(C)(C)Oc2ccc(C(=O)Nc3ccccc3)cc21	inconclusive: 66.6%
CNC(=O)/C=C1\NC(C)(C)Cc2c1ccc1ccccc21	inconclusive: 65.3%
COc1ccc(-c2cccc([C@H]3[C@@H]4C=CCC[C@@]4(C)C(=O)N3Cc3ccccc3)c2)cc1	inconclusive: 50.9%
CC(C)(C)c1cc(NC(=O)c2cc(F)c(F)c(F)c2F)no1	inconclusive: 36.9%
Cc1ccc(/C=N/NC(=O)c2cccs2)s1	inactive: 23.4%
O=C(COC(=O)c1ccccc1Br)NCCC1=CCCCC1	inconclusive: 34.6%
COC(=O)CCSCc1cn2cc(Cl)ccc2n1	inactive: 0.672%
O=C(CSc1ccc2ccccc2c1)Nc1ccncc1	inconclusive: 72.2%
O=C(Nc1cc(Cl)cc(Cl)c1)C1CCC(=O)N1Cc1ccccc1Cl (stereo not drawn)	inactive: -3.23%
CN1C(=S)SC(C)(NO)C1(C)C (stereo not drawn)	inactive: -16.4%
S=C(NCC1CCCCC1)Nc1ccc(Oc2ccccc2)cc1	inconclusive: 57%
COc1ccc(OC)c(/C=C/C(=O)c2ccc3c(c2)OCCO3)c1	inactive: 6.92%
Cc1nn(-c2ccccc2)c(C)c1C(=O)OCc1ccc(C#N)cc1	inconclusive: 47.5%
O=C(/C=C\c1cccs1)N1CCN(Cc2ccc3c(c2)OCO3)CC1	inconclusive: 55.3%
S=C(NCCN(C1CCCCC1)C1CCCC1)Nc1cccc(Cl)c1	inconclusive: 36.7%
COc1cc(NC(=O)CCCc2c[nH]c3ccccc23)cc(OC)c1	inconclusive: 68.5%
O=C(Nc1ccccc1)OCCOc1cccc(Br)c1	inconclusive: 30.5%
CCOC(=O)C(C)Oc1ccc2c(-c3cccc([N+](=O)[O-])c3)cc(=O)oc2c1 (stereo not drawn)	inconclusive: 35.1%
O=C(CC(c1ccccc1)c1ccccc1)Nc1ccc(O)cc1	inconclusive: 44.1%
O=C(Nc1ccccc1)c1ccc2c(c1)CCN2S(=O)(=O)c1ccccc1	inconclusive: 65.4%

Reference: PubChem BioAssay AID540275 (National Center for Advancing Translational Sciences (NCATS), 2011)
